{
  "source": "patent US11370846B2",
  "about": "“Compositions and methods to regulate Renalase in the treatment of cancer” (Yale University, priority 2014, dated 2022)",
  "system": "WT mice",
  "experiment": "Renal ischemia and reperfusion in WT mice with renalase peptide RP-H220",
  "type": "in vivo, mouse",
  "conditions": "30 minutes of renal ischemia and reperfusion",
  "protocol": "FIG. 3 is a chart showing that ERK or AKT inhibition abrogates protective effect of renalase peptide: WT mice subjected to sham surgery or to 30 minutes of renal ischemia and reperfusion; RP-[…] or vehicle (saline) injected 10 minutes before renal ischemia. ERK inhibitor PD98059 or the PI3K/AKT inhibitor wortmannin abrogated RP-[…]'s protective effect.",
  "note": "For at least one compound, name, drawing or mass did not settle the structure.",
  "data": [
    {"smiles": "COC[C@H]1OC(=O)c2coc3c2[C@@]1(C)C1=C(C3=O)[C@@H]2CCC(=O)[C@@]2(C)C[C@H]1OC(C)=O", "note": "[wortmannin]", "values": [
      {"measurement": "effect on RP-H220's protective effect", "value": "abrogated RP-H220's protective effect"}
    ]}
  ]
}
